Experimental findings from article PMC8170790 are described below.

The chains behind the UniProt entries cited, without tags or fusion partners.
UniProt P22736: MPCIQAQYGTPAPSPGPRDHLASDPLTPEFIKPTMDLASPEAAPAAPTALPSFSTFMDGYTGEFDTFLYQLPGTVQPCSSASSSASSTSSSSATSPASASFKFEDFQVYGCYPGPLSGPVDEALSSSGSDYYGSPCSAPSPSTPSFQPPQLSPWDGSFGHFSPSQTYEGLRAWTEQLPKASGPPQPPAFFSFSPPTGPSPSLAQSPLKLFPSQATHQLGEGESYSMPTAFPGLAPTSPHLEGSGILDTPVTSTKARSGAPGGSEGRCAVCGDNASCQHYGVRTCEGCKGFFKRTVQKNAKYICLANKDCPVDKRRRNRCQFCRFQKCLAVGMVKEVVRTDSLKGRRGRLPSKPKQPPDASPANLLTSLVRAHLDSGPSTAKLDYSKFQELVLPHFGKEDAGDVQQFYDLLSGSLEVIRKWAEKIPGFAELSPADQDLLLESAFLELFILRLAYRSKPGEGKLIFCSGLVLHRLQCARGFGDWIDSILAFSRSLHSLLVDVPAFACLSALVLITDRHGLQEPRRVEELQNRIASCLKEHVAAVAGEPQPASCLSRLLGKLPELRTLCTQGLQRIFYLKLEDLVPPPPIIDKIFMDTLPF
UniProt Q99942: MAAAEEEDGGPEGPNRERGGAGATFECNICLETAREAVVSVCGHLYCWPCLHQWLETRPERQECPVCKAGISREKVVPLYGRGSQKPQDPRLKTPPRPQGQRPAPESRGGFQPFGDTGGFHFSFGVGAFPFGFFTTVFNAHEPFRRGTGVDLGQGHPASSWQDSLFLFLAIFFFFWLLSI

One test has as its target T1, TM4 (UBAC2) (UniProt Q8NBM4).
T1 sequence: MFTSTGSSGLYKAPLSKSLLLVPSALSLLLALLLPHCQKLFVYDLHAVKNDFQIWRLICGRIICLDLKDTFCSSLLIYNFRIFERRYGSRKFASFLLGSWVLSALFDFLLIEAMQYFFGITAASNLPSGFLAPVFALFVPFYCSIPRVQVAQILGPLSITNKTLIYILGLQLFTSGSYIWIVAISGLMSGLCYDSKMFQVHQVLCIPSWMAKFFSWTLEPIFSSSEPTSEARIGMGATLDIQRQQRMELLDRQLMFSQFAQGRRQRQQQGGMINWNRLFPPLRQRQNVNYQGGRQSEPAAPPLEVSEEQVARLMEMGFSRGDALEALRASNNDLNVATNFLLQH
The test can be described thus: two-hybrid; yeast two-hybrid screening for TM4-interacting proteins; library and vectors not told.

Test [1] has as its target Nur77 (overexpressed in Hela cells) (UniProt P22736). The test can be described thus: co-IP; Hela cells transfected with the Nur77 plasmid, harvested 48 h later, IP lysis buffer, Nur77 antibodies, Protein A/G beads; western blot for TM4. (A western blot detects proteins with antibodies after separation by electrophoresis.)
In test [2] the target is recombinant Nur77 protein obtained from prokaryotic expression (UniProt P22736). Kind of test: pull-down; lysates of eukaryotic cells overexpressing EGFP-C2-TM4 or Flag-TM4 (48 h) incubated with recombinant Nur77 from prokaryotic expression; eluted; blot with GFP and flag antibodies; only the target purified.

No constants are given. Whether binding was seen depends on the method and setting. For some assays here: In cells and extracts the contact can be indirect. Some entries that bind do so weakly or less than the wild type. For some assays here: Tags and fused reporters may be left off the sequences shown.

For the molecule RNF-5 (from UniProt Q99942 1-180), in the test with TM4 (UBAC2), the binding result is recorded as “binds”.

B1: USP-19 (protein, UniProt O94966 1-1318)
chain: MSGGASATGPRRGPPGLEDTTSKKKQKDRANQESKDGDPRKETGSRYVAQAGLEPLASGDPSASASHAAGITGSRHRTRLFFPSSSGSASTPQEEQTKEGACEDPHDLLATPTPELLLDWRQSAEEVIVKLRVGVGPLQLEDVDAAFTDTDCVVRFAGGQQWGGVFYAEIKSSCAKVQTRKGSLLHLTLPKKVPMLTWPSLLVEADEQLCIPPLNSQTCLLGSEENLAPLAGEKAVPPGNDPVSPAMVRSRNPGKDDCAKEEMAVAADAATLVDEPESMVNLAFVKNDSYEKGPDSVVVHVYVKEICRDTSRVLFREQDFTLIFQTRDGNFLRLHPGCGPHTTFRWQVKLRNLIEPEQCTFCFTASRIDICLRKRQSQRWGGLEAPAARVGGAKVAVPTGPTPLDSTPPGGAPHPLTGQEEARAVEKDKSKARSEDTGLDSVATRTPMEHVTPKPETHLASPKPTCMVPPMPHSPVSGDSVEEEEEEEKKVCLPGFTGLVNLGNTCFMNSVIQSLSNTRELRDFFHDRSFEAEINYNNPLGTGGRLAIGFAVLLRALWKGTHHAFQPSKLKAIVASKASQFTGYAQHDAQEFMAFLLDGLHEDLNRIQNKPYTETVDSDGRPDEVVAEEAWQRHKMRNDSFIVDLFQGQYKSKLVCPVCAKVSITFDPFLYLPVPLPQKQKVLPVFYFAREPHSKPIKFLVSVSKENSTASEVLDSLSQSVHVKPENLRLAEVIKNRFHRVFLPSHSLDTVSPSDTLLCFELLSSELAKERVVVLEVQQRPQVPSVPISKCAACQRKQQSEDEKLKRCTRCYRVGYCNQLCQKTHWPDHKGLCRPENIGYPFLVSVPASRLTYARLAQLLEGYARYSVSVFQPPFQPGRMALESQSPGCTTLLSTGSLEAGDSERDPIQPPELQLVTPMAEGDTGLPRVWAAPDRGPVPSTSGISSEMLASGPIEVGSLPAGERVSRPEAAVPGYQHPSEAMNAHTPQFFIYKIDSSNREQRLEDKGDTPLELGDDCSLALVWRNNERLQEFVLVASKELECAEDPGSAGEAARAGHFTLDQCLNLFTRPEVLAPEEAWYCPQCKQHREASKQLLLWRLPNVLIVQLKRFSFRSFIWRDKINDLVEFPVRNLDLSKFCIGQKEEQLPSYDLYAVINHYGGMIGGHYTACARLPNDRSSQRSDVGWRLFDDSTVTTVDESQVVTRYAYVLFYRRRNSPVERPPRAGHSEHHPDLGPAAEAAASQASRIWQELEAEEEPVPEGSGPLGPWGPQDWVGPLPRGPTTPDEGCLRYFVLGTVAALVALVLNVFYPLVSQSRWR
Take B1: the binding result with TM4 (UBAC2) is reported as “binds”.

B2: TM4 (UBAC2), in Hela cells (protein, UniProt Q8NBM4 36-344)
chain: HCQKLFVYDLHAVKNDFQIWRLICGRIICLDLKDTFCSSLLIYNFRIFERRYGSRKFASFLLGSWVLSALFDFLLIEAMQYFFGITAASNLPSGFLAPVFALFVPFYCSIPRVQVAQILGPLSITNKTLIYILGLQLFTSGSYIWIVAISGLMSGLCYDSKMFQVHQVLCIPSWMAKFFSWTLEPIFSSSEPTSEARIGMGATLDIQRQQRMELLDRQLMFSQFAQGRRQRQQQGGMINWNRLFPPLRQRQNVNYQGGRQSEPAAPPLEVSEEQVARLMEMGFSRGDALEALRASNNDLNVATNFLLQH
For the molecule B2, in test [1], the binding entry is given as “binds”.

B3: EGFP-C2-TM4 (protein, UniProt Q8NBM4 36-344)
chain: B2 chain
B3: the binding entry in test [2] is listed as “binds”.

B4: Flag-TM4 (protein, UniProt Q8NBM4 36-344)
chain: B2 chain
Consider B4, for which the binding result in test [2] is “binds”.
